The conditions of series [1]: relative to acetaminophen; cited from earlier work.
Series [2] can be described thus: taste of acetaminophen salts. The note with it: for bitterness: relative to conventional free acid form of acetaminophen.

Where a name gives a salt, the structure may show the parent alone. Some compounds share one wording; it may come from a single statement.

Take `CC(=O)Nc1ccc(OC(=O)C(N)CC(=O)O)cc1` (stereo not drawn) [AAPA, α-p-acetamidophenyl aspartate]: the bitterness of taste entry in series [1] is on record as “less bitter taste than acetaminophen”.

For `CC(=O)Nc1ccc(OC(=O)CN)cc1` [APG, p-acetamidophenyl glycinate], the bitterness of taste result in series [1] is on record as “less bitter taste than acetaminophen”.

Take `CC(=O)Nc1ccc(OC(=O)CC(N)C(=O)O)cc1` (stereo not drawn) [BAPA, β-p-acetamidophenyl aspartate]: in series [1], the bitterness of taste entry is recorded as “less bitter taste than acetaminophen”.

As to `CC(=O)Nc1ccc(O)cc1` [Calcium Salt, acetaminophen calcium], in series [2], the taste result is “almost tasteless” and the bitterness result is on record as “not to have the bitter properties of the conventional free acid form of acetaminophen”. Turning to `CC(=O)Nc1ccc(O)cc1` [Sodium Salt, acetaminophen sodium], in series [2], the taste result is recorded as “somewhat salty” and the bitterness result was “not to have the bitter properties of the conventional free acid form of acetaminophen”.

The record behind these values is patent publication US6160020A, “Alkali metal and alkaline-earth metal salts of acetaminophen” (priority 1998, dated 2000).
